This is an account of results in publication PMC10163288.

This is one part of the list.

To fix the notation:
B1: il10ra_site1_sap_23_mot_HHH_b2_04001_000000102_0001_19_36_H_._HHH_b1_08465_af2_0001_0000500036_0000001_0_0001 (protein)
chain: SSSSSEYVEIAERFARSAHENGDRLILEHMLEMARMLAERLNDPELEELVEEIEELLERLRSSSS
B2: il10ra_site1_normal_mot_8756ee2cf497b5429c717dfc0c0bcfd6_0001_000000186_0001_1_13_H_._HHH_b1_02143_af2_0001_0000200006_0000001_0_af2pred_dldesign_0_af2pred (protein)
chain: SSSSSDKISRLVELIRKLAELVSNKDKENFKKLYKEALKLAKELKSPTFLHTLDYLKSKIESSSS
B3: il10ra_site1_normal_mot_HHH_b2_08186_000000021_0001_43_56_H_._HHH_b1_08707_0001_0000300027_0000001_0 (protein)
chain: SSSSSDIEELLREAEELAEEGNPEEALRLLQEALRLIYENNDEELLRELWEVLRKVAELSSSSSS
B4: il10ra_site1_sap_21_mot_HHH_b2_03262_000000140_0001_43_57_H_._HHH_b2_04959_af2_0001_0000600026_0000001_1_0001 (protein)
chain: SSSSDDYEEVKRLLEEAAKLLRNGDPEEAERLLEELEEELREKGNFAALFSVRHLLEVVRNSSSS
B5: il10ra_site1_normal_mot_5aed09890fd46f02a60ca541bcb2e05a_0001_1_000000092_0001_15_31_H_._01923d483164837742cf829bee572cc5_0001_0001_0000400017_0000001_0 (protein)
chain: DEEEVKRLIEEALGVPPEVVELAVRQLAEQARIPPEEALELLIRAFLLANPHNELLREALELLRK
B6: il10ra_site1_sap_21_mot_HHH_b1_05126_000000010_0001_38_52_H_._HHH_b2_05985_af2_0001_0000600013_0000001_1_0001 (protein)
chain: SSSSDLEEEIEKLLEELEELIKEGDRERITELALKIVKLIYEAKNAELLRRLWELVKAFYSSSSS
B7: il10ra_site1_sap_25_mot_HHH_b2_00894_000000003_0001_1_20_H_._HHH_b2_00894_0001_0000300026_0000002_0_0001 (protein)
chain: SSSSSDEAEEEVRELLEEAEKIPDAEEAYKLLKEAIEIAIENNDPEAERLVHEAIRKWLHSSSSS
B8: il10ra_site1_sap_28_mot_HHH_b1_01011_000000096_0001_1_19_H_._HHH_b1_05983_0001_0000100002_0000003_0_0001_af2pred_0001 (protein)
chain: SSSSSDEEVEERVEELLERAKKIDDPNRRAYLLIEAFALANKLNDEELKRKVEEVAKKLSSSSSS
B9: il10ra_site1_sap_22_mot_HHH_b1_01011_000000096_0001_1_19_H_._HHH_b1_01309_0001_0000200002_0000002_0_0001 (protein)
chain: SSSSSSTDLAHLLLRLVEAVYNKDEELIRELLEELRELLEEEGDPYIRIALHFAEAALSSSSSSS
B10: il10ra_site1_sap_11_mot_HHH_b2_02315_000000136_0001_19_35_H_._HHH_b2_01011_0001_0000100008_0000001_0_0001 (protein)
chain: SSSSDEATREIYELLREAVELDNDGNPEEAEKVLEEARKIAEEGNDRVLAHTIRRMEELIGSSSS
B11: il10ra_site1_normal_mot_HHH_b1_05357_000000034_0001_23_39_H_._ems_3hC_618_0001_0001_0000600039_0000001_0 (protein)
chain: KEEARDRASHLIIQAYALAHQSDPEAREEAEELIKEAEELAKEANDPAVEQAVRIAKEEIEEACS
B12: il10ra_site1_sap_15_mot_HHH_b2_03745_000000022_0001_1_20_H_._HHH_b2_06044_0001_0000100003_0000001_0_0001 (protein)
chain: SSSDREIALRAAELSIEAIQLQHRGDEEALEEIVEEVRELVEELGDPYVRIVLRFVESLLRNSSS
B13: il10ra_site1_sap_22_mot_HHH_b1_06804_000000054_0001_40_54_H_._HHH_b1_06242_af2_0002_0000600032_0000001_0_0001 (protein)
chain: SSSSDEEERHYVEAARRFAELAAEAGNPEMVESILELLREILERLNDEELLEQVEELLEELSSSS
B14: il10ra_site1_sap_24_mot_HHH_b2_06480_af2_000000075_0001_1_18_H_._HHH_b1_07760_af2_0001_0000600037_0000002_0_0001 (protein)
chain: SSSSDEATREVYELSRRAMEALAEGDPEEAREILEEALEIARENNDRIMAVVLEYILRLLNSSSS
B15: il10ra_site1_normal_mot_HHH_b1_07878_000000292_0001_1_19_H_._HHH_b2_06173_0001_0000700028_0000002_0_af2pred_0001 (protein)
chain: SSSSDEAFEITRRAIEEAVKLLEEGDPEKAEQVVEEALRLVEELNNFAAFASLKHLLEIIRSSSS
B16: il10ra_site1_normal_mot_HHH_b1_00814_af2_000000078_0001_43_57_H_._HHH_b2_00423_af2_0003_0000500024_0000003_0_af2pred_0001 (protein)
chain: SSSSSSEEEVRELLKEAEEALERGNPQEAIELLRRALRLAAELNNPELLKLVLEVARHVISSSSS
B17: il10ra_site1_normal_mot_HHH_b2_02354_af2_000000157_0001_40_56_H_._HHH_b1_04654_af2_0001_0000100004_0000002_0 (protein)
chain: SSSSDEERRIAQLIEEVMRLIKEGDDEEAKKLLEELKELAEELNDPNLKFIIRSLELAVRQSSSS
B18: il10ra_site1_normal_mot_HHH_b2_01447_af2_000000258_0001_1_20_H_._HHH_b1_01394_0001_0000100005_0000001_0 (protein)
chain: SSSSTEEVQEIMKLLRRLAELVQNRDEEEFEEIVREAERLIEEANNEILEFALRLLEEAINSSSS

For the experiment, the target named is il10ra, Q13651. The experiment in a line: yeast display titration.
Regarding B1, the “apparent Kd” value is “inactive: no binding seen”.

With B2, the “apparent Kd” value is “inactive: no binding seen”.

Turning to B3, the “apparent Kd” value is “inactive: no binding seen”.

Regarding B4, the “apparent Kd” value is “inactive: no binding seen”.

Turning to B5, the “apparent Kd” value is “inactive: no binding seen”.

B6: the “apparent Kd” value was “inactive: no binding seen”.

For the molecule B7, the “apparent Kd” value is “inactive: no binding seen”.

As for B8, the “apparent Kd” value is “inactive: no binding seen”.

Turning to B9, the “apparent Kd” value was “inactive: no binding seen”.

Consider B10, for which the “apparent Kd” value was “inactive: no binding seen”.

As to B11, the “apparent Kd” value is “inactive: no binding seen”.

Consider B12, for which the “apparent Kd” value was “inactive: no binding seen”.

Regarding B13, the “apparent Kd” value was “inactive: no binding seen”.

In the case of B14, the “apparent Kd” value was “inactive: no binding seen”.

With B15, the “apparent Kd” value is “inactive: no binding seen”.

In the case of B16, the “apparent Kd” value is “inactive: no binding seen”.

On to B17, for which the “apparent Kd” value was “inactive: no binding seen”.

In the case of B18, the “apparent Kd” value was “inactive: no binding seen”.
